Results are given in words; binding and its absence hold for the method and conditions named. In cells and extracts the contact can be indirect. Some entries that bind do so weakly or less than the wild type. Sequences can lack the tags named with a protein.
Tests used:
[1] = biological target: T1, RLP32-GFP (Arabidopsis leucine-rich repeat receptor-like protein 32 with C-terminal GFP) (Arabidopsis thaliana) (UniProt Q9M9X0); test: cross-linking; in vivo cross-linking: N. benthamiana leaves expressing the GFP-tagged receptor infiltrated with 30 nM biotinylated ligand, with or without 30 uM unlabeled competitor; after 5 min 2 mM EGS, harvest after 15 min; receptor precipitated with GFP-Trap beads; bound ligand detected on blots with streptavidin-alkaline phosphatase; only the binder purified
T1 sequence: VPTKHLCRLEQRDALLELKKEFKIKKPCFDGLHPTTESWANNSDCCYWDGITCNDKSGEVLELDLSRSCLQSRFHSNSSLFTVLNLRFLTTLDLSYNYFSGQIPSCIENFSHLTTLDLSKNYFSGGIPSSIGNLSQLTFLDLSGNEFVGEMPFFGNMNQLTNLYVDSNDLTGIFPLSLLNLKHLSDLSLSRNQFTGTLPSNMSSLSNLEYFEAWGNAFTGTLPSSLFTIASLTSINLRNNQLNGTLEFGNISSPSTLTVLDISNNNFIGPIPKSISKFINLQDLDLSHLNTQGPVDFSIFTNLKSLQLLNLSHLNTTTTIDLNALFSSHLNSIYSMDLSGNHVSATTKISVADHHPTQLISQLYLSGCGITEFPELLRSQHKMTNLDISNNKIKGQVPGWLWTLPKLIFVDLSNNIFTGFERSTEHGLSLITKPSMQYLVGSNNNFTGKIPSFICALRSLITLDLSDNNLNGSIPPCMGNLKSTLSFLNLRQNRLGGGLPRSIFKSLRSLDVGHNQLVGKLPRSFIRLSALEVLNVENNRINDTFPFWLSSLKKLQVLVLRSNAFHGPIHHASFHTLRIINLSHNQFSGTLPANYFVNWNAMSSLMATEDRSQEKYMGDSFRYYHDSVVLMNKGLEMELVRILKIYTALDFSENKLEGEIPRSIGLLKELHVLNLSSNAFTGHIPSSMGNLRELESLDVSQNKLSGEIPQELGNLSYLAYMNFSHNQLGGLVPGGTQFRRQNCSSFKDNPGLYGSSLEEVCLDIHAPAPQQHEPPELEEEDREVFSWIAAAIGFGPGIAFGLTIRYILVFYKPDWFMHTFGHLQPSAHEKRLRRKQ

[2] = biological target: T1, RLP32-GFP (Arabidopsis leucine-rich repeat receptor-like protein 32 with C-terminal GFP) (Arabidopsis thaliana); test: condition: only with a 1000-fold molar excess of native IF1 (30 uM); cross-linking; in vivo cross-linking: N. benthamiana leaves expressing the GFP-tagged receptor infiltrated with 30 nM biotinylated ligand, with or without 30 uM unlabeled competitor; after 5 min 2 mM EGS, harvest after 15 min; receptor precipitated with GFP-Trap beads; bound ligand detected on blots with streptavidin-alkaline phosphatase; only the binder purified

| Binder | binding [1] | binding [2] |
| --- | --- | --- |
| biotinylated IF1 (translation initiation factor 1) (ligand, UniProt P69222 1-72, biotin (position not given)) MAKEDNIEMQGTVLETLPNTMFRVELENGHVVTAHISGKMRKNYIRILTGDKVTVELTPYDLSKGRIVFRSR | binds | no binding |
| translation initiation factor 1 (IF1), unlabeled, chemically synthesized (ligand, UniProt P69222 1-72) MAKEDNIEMQGTVLETLPNTMFRVELENGHVVTAHISGKMRKNYIRILTGDKVTVELTPYDLSKGRIVFRSR | binds |  |

Source: article PMC8917236
